Patent US20210277142A1
No constants are given. Whether binding was seen depends on the method and setting. Some binding calls cover weakened binding; strength is not graded here. For some assays here: Tags and fused reporters may be left off the sequences shown.

T1: recombinant His-tagged human Mcm5 fragment (human) (UniProt P33992)
T1 sequence: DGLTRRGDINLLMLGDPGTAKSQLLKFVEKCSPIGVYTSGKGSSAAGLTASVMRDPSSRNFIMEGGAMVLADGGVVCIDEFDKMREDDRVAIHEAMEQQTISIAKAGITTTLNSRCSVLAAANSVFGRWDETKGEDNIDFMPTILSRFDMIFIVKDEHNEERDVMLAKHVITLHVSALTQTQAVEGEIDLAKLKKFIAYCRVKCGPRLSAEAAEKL

T2: Mcm5-derived 15 aa microarray peptides with the consensus motif WDETKGE (human)
T2 sequence (peptide): WDETKGE

T3: Mcm5-derived 15 aa microarray peptides with the consensus motif DDRVAIH (human)
T3 sequence (peptide): DDRVAIH

B1: mouse monoclonal IgG antibody 12A7 (antibody, V domains shown)
VH: QQDLQQSGPGILQPTQTLSLTCSFSGFSLSTSGMGVSWIRQSSNMGLEWLAHIFWDDDKRYNPSLRSRLTLSKDTSSSQVFLMITSVSTADSATYYCARRSDYNYYSMDYWGQGTAVTVSS
VL: DIMLTQSPLSLSVTLGDQASISCRSSQNLVQSNGNTYLTWYLQKPGQSPKVLINKVSNRFYGVPDRFSGSGSGTDFTLRISRVEAEDLGIYFCSQSTRVPYTFGGGTKLEIRR
B2: mouse monoclonal IgG antibody 4B4 (antibody, V domains shown)
VH: VKLQESGGGLVKPGGSLKLSCAASGFTFSNYAMSWVRQNPEKRLEWVATISRGGSYTYYPDSVKGRFTISRDNAKNTLYLQMNSLRSEDTAMYFCARHGYNYDDGAWFANWGQGTLVTVSA
VL: DIMLTQSPSSLSASLGERVSLTCRASQDIGSSLNWLQQEPDGTIKRLIYATSSLDSGVPKRFSGSRSGSDYSLTISSLESEDFVDYYCLQYASSPPTFGGGTKLEIK

Experiments:
[1] = target: T1, recombinant His-tagged human Mcm5 fragment (human); experiment: colorimetric screening ELISA on His-tagged Mcm5 on Ni-NTA plate
[2] = target: T2, Mcm5-derived 15 aa microarray peptides with the consensus motif WDETKGE (human); experiment: peptide microarray, antibody at 1 and 10 ug/ml, goat anti-mouse DyLight680 detection
[3] = target: T1, recombinant His-tagged human Mcm5 fragment (human); experiment: ELISA, MAb dilution on antigen-limiting 25 ng/well Mcm5 on Ni-NTA plate
[4] = target: T3, Mcm5-derived 15 aa microarray peptides with the consensus motif DDRVAIH (human); experiment: peptide microarray, antibody at 1 and 10 ug/ml, goat anti-mouse DyLight680 detection

| Binder | binding [1] | binding [2] | binding [3] | binding [4] |
| --- | --- | --- | --- | --- |
| B1 | binds | binds | binds |  |
| B2 |  | binds |  | binds |
